Reference: PMC8782398
No constants are given. Whether binding was seen depends on the method and setting.

Chains of the proteins cited; added tags and fusions are not shown. Lines headed by an entry give the natural chain unless they say otherwise; changes in a name come on top.
UniProt P35372: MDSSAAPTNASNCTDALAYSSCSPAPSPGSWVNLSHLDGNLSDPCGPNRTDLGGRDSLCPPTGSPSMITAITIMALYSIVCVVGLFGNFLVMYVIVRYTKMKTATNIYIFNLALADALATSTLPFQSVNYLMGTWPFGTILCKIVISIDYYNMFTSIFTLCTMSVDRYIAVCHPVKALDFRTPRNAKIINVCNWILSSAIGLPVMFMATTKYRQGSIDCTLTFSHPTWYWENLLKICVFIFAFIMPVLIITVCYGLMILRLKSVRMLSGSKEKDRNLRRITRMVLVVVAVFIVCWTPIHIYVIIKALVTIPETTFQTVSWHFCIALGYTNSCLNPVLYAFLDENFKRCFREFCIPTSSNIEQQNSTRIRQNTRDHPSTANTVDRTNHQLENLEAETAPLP
UniProt Q13519: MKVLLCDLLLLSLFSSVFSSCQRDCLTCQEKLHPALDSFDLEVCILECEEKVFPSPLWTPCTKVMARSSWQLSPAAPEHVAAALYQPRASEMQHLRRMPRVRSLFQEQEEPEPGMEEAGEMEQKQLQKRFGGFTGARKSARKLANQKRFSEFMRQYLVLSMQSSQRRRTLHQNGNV

Target: human MOP receptor in HEK293 cells (human) (UniProt P35372)
Assay: radioligand binding; only the binder purified

Nociceptin/Orphanin FQ (from UniProt Q13519 130-146) (peptide)
binding: no binding
